In paper PMC10470531 one finds binding data, which are given here for 3 substances.

Amino acid sequences for entries named in this document (tags omitted). A change or cut given only in a name is not applied to a line headed by its entry. Residues count along the entry.
UniProt P02769, residues 25-607: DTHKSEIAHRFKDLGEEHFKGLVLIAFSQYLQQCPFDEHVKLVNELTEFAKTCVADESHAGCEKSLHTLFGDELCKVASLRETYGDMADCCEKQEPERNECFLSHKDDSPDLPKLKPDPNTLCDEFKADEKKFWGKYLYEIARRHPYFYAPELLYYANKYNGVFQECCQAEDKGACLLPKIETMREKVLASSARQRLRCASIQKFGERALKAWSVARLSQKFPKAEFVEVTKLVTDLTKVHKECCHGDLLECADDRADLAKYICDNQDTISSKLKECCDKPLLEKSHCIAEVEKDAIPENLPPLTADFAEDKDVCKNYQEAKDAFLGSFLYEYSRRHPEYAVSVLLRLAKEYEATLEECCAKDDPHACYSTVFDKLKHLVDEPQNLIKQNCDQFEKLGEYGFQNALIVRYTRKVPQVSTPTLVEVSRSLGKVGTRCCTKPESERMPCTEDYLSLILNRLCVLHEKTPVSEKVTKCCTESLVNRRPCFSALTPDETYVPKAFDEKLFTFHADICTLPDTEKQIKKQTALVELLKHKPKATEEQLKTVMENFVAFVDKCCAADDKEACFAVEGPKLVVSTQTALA
UniProt D4GVJ5: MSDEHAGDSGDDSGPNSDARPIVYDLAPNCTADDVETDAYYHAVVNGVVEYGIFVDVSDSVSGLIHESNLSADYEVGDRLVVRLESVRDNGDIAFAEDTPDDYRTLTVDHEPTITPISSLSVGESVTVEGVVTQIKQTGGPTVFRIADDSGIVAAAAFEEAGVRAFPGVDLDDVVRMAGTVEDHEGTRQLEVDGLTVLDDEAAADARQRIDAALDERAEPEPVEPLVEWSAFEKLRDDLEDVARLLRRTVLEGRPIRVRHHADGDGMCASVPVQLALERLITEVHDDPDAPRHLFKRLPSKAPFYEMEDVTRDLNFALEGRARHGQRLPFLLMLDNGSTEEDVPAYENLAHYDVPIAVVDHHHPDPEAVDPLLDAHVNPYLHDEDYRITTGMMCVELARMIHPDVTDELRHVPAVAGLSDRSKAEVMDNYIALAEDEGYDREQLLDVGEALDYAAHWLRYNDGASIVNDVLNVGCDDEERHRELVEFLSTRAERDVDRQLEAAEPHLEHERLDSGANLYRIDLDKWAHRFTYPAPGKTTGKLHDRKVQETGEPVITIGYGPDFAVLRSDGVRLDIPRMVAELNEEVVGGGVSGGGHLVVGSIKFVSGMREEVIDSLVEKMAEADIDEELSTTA

In test [1] the target is T1, aRNase J-StrepII (H. volcanii) (UniProt D4GW49).
T1 sequence: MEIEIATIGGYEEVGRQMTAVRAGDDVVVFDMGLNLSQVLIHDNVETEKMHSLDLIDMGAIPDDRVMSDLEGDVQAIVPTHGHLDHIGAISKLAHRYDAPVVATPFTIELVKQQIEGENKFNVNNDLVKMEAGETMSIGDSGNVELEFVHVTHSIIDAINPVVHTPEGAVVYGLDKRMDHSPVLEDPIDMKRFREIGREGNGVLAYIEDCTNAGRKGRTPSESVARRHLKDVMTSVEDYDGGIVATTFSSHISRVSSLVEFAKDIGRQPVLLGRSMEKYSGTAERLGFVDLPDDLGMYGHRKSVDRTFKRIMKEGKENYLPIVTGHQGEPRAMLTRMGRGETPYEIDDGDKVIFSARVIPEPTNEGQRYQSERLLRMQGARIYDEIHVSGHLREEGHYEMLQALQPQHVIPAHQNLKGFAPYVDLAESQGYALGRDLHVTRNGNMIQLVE
The experiment in a line: affinity purification with mass spectrometry; tandem affinity purification (HisTrap, then Strep-Tactin) of His6-RecJ3 and aRNase J-StrepII from H. volcanii HJ02-pJAM4252 against the empty vector; 2 M NaCl buffers; LC-MS/MS of the liquid fractions and AQUA-based MS/MS (SRM with heavy peptides) for the stoichiometry.

Test [2] addresses T2, Ubl SAMP1 with an N-terminal Flag-His6-tag (H. volcanii) (UniProt D4GUF6).
T2 sequence: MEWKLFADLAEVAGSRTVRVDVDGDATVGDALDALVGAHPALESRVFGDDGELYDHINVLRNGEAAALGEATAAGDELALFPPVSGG
Put plainly: affinity purification with mass spectrometry; Flag-His6-SAMP1 (or BSA as control) covalently coupled to agarose beads (AminoLink Plus); H. volcanii NH02-pJAM957 cell lysate with 5 mM ATP and DNase; high-salt PBS (2 M NaCl, 0.1 M sodium phosphate), 4°C; eluted with 0.1 M glycine-HCl pH 2.5; non-reducing SDS-PAGE, SYPRO Ruby, LC-MS/MS of bands; only the target purified.

Test [3] addresses bovine serum albumin (bovine) (UniProt P02769). The description is as above.
Test [4] concerns the target T2, Ubl SAMP1 with an N-terminal Flag-His6-tag (H. volcanii). The experiment in a line: condition: only ATP omitted from the binding buffer; affinity purification with mass spectrometry; as a1 but ATP omitted from the cell-free extract / binding buffer; only the target purified.
Test [5] deals with T1, aRNase J-StrepII (H. volcanii). The experiment in a line: affinity purification with mass spectrometry; aRNase J-StrepII on Strep-Tactin resin from H. volcanii H26-pJAM1406 lysate against the empty vector; 50 mM Tris-HCl pH 7.5, 2 M NaCl, 1 mM DTT, 0.5 mM MnCl2, 4.5 mM MgCl2, 0.1 mM γATP; beads boiled, reducing SDS-PAGE, LC-MS/MS.

Results are given in words; binding and its absence hold for the method and conditions named. Binding seen in cells or lysates may run through a third protein. These calls come from enrichment with a bait or labelling near it, and not all partners need be listed. For some of these results: A no says only that the protein was not detected with the bait. For some of these results: Where a sequence is shown, tags or fusion partners need not be part of it.

For DnaK chaperone, in test [1], the binding result is reported as “binds”.

Regarding RecJ3 (from UniProt D4GVJ5), the binding entry is recorded as “binds” in test [2], “no binding” in test [3] and “no binding” in test [4].

With RecJ4, the values for the binding entry in test [2], in test [4] and in test [5] were “binds”, “no binding” and “binds”, respectively.
